According to PubChem BioAssay AID504467 (National Center for Advancing Translational Sciences (NCATS), 2011):
The whole screen tested about 330,000 compounds, of which about 7,700 (2.3%) were called active. The shares of active, inactive and inconclusive entries below differ from those in the screen. Calls follow the shape of the dose curve; as a rule, active = well fitted inhibition curve with a large enough effect; inconclusive = small, poorly fitted or top-dose-only effect, or effect the other way; inactive = flat fitted curve, though single readings scatter. Potencies beside an inconclusive call are fits to weak or partial responses and may not hold up.

Experiment: qHTS screen for small molecules that inhibit ELG1-dependent DNA repair in human embryonic kidney (HEK293T) cells expressing luciferase-tagged ELG1; also: nearly all actives have a fitted effect of over 55% in size
Details: HEK293T ELG1-luciferase reporter, luminescence, 16 h, DNA damage induced by 5-fluorouridine; activity change, negative = inhibition: at 46.1 µM (top of the series)
Method in brief: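 5-Fluorouridine DNA damage + compound/DMSO, 2,000 cells/well, 16 h, 37 °C/5% CO2. ONE-Glo, 30 min RT, luminescence. Readout = decrease in reporter signal.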
% is scaled to controls: 0 for no effect and ±100 for the full control effect; potency is read from the fitted curve at half-maximal effect.

Row | Compound | activity change, negative = inhibition | Potency
1 | O=C(CNC(=O)c1ccccc1)N/N=C/C=C/c1ccccc1 | inactive: -2.89% | 
2 | CCCCc1ccc(Nc2ncnc3nc[nH]c23)cc1 |  | inconclusive: 8.2 µM [activator, partial curve]
3 | O=C1C(NS(=O)(=O)c2ccccc2)=C(N2CCN(c3ccc(F)cc3)CC2)C(=O)c2ccccc21 |  | active: 23.1 µM
4 | CCOC(=O)CSc1nnc(CNc2ccc(Cl)cc2)n1-c1ccccc1 |  | inconclusive: 6.51 µM [activator, single point]
5 | Cc1cc(Cl)c(OCCCn2cncn2)c(Br)c1 | inactive: -24.7% | 
6 | CCOC(=O)c1cccc(NC(=O)c2cnccn2)c1 |  | inconclusive: 18.4 µM [activator, partial curve]
7 | Nc1ccc2oc(-c3ccccn3)nc2c1 |  | inconclusive: 13 µM [activator, partial curve]
8 | O=C(Nc1ccc(C(=O)N2CCCc3ccccc32)cc1)c1cccs1 | inactive: -12.5% | 
9 | Cc1c(NC(=O)c2ccc(Cl)nc2)cccc1-c1nc2cccnc2s1 |  | inconclusive: 29.1 µM [inhibitor, single point]
10 | CCOc1ccc2c(c1)nc(C)n2C |  | inconclusive: 14.6 µM [activator, partial curve, poor fit]
11 | CCOC(=O)c1ccc(/[N+]([O-])=C/c2ccccc2)cc1 |  | inconclusive: 10.3 µM [activator, partial curve]
12 | CC(=O)N1CCc2cc(S(=O)(=O)NCCC(=O)Nc3ccc4c(c3)OCCO4)ccc21 |  | inconclusive: 9.2 µM [activator, single point]
13 | CCc1ccccc1OC[C@@H](O)CN[C@H]1CCCc2ccccc21 | inactive: -5.73% | 
14 | CC1CCN(S(=O)(=O)c2nnc(NC(=O)c3cccc([N+](=O)[O-])c3)s2)CC1 |  | inconclusive: 29.1 µM [inhibitor, single point]
15 | CCCCCCNC(=O)CCCCCNS(=O)(=O)c1ccc(Br)cc1 |  | inconclusive: 32.6 µM [inhibitor, single point]
16 | COc1ccc(-c2nc(-c3ccccc3)c(-c3cc([N+](=O)[O-])ccc3C)[nH]2)cc1O |  | inconclusive: 23.1 µM [inhibitor, single point]
17 | Cc1cc(C)nc(SCc2cn3c(C)cccc3n2)n1 | inactive: 8.21% | 
18 | CCN(c1ccccc1)S(=O)(=O)c1cccc(C(=O)NCCOc2ccccc2OC)c1 |  | inconclusive: 10.3 µM [inhibitor, partial curve]
19 | COc1ccc(OCCNc2cc(N3CCCCC3)ccc2[N+](=O)[O-])cc1 |  | inconclusive: 23.1 µM [inhibitor, single point]
20 | COc1cc(SC)ccc1C(=O)Nc1ccc(S(=O)(=O)N2CCCC2)cc1 | inactive: 7.51% | 
21 | C=C(C)c1cccc(C(C)(C)NC(=O)N2CCN(CC)CC2)c1 | inactive: 0.377% | 
22 | CN(C)/C=C1\C(=O)N(c2ccc([N+](=O)[O-])cc2)N=C1c1ccccc1 |  | inconclusive: 20.6 µM [activator, single point]
23 | C/C(=N\NC(=O)c1nnn(-c2nonc2N)c1C(C)C)c1ccc2ccccc2c1 |  | inconclusive: 32.6 µM [activator, single point]

Structural class, the entries above with two or more sulfur atoms (2)
Row | Compound | activity change, negative = inhibition | Potency
14 | CC1CCN(S(=O)(=O)c2nnc(NC(=O)c3cccc([N+](=O)[O-])c3)s2)CC1 |  | inconclusive: 29.1 µM [inhibitor, single point]
20 | COc1cc(SC)ccc1C(=O)Nc1ccc(S(=O)(=O)N2CCCC2)cc1 | inactive: 7.51% | 

Next part.

Row | Compound | activity change, negative = inhibition | Potency
24 | Cc1nc2ccccc2c2c(N)c3ccccc3n12 |  | active: 25.9 µM
25 | CCCC1(C(=O)OC)NC(c2cc(OC)c(OC)c(OC)c2)C2C(=O)N(CC)C(=O)C21 (stereo not given) | inactive: 3.63% | 
26 | Cn1c(SCC(=O)Nc2cc(Cl)cc(Cl)c2)nnc1-c1ccc2nonc2c1 | inactive: 7.01% | 
27 | COc1ccc(C(=O)NCC(=O)N/N=C/c2ccc([N+](=O)[O-])o2)cc1OC |  | inconclusive: 0.517 µM [activator, partial curve, poor fit]
28 | CC(OC(=O)c1ccccc1NS(=O)(=O)c1cccc(N)c1)C(=O)N(C)Cc1ccccc1 (stereo not given) |  | inconclusive: 20.6 µM [inhibitor, single point]
29 | CC(=O)Nc1ccc(NC(=O)CSc2nnc(-c3ccc4c(c3)OCO4)o2)cc1 |  | inconclusive: 13 µM [activator, partial curve]
30 | O=C(O)c1ccc(NNC(=S)Nc2cc(C(F)(F)F)ccc2Cl)cc1 |  | inconclusive: 20.6 µM [activator, partial curve]
31 | O=C(N/N=C/c1c[nH]c2ccccc12)c1ccc(O)c(O)c1 | inactive: -3.77% | 
32 | c1ccc(-c2csc3ncnc(NCC4COc5ccccc5O4)c23)cc1 (stereo not given) |  | inconclusive: 29.1 µM [inhibitor, single point]
33 | CC(C)Nc1oc(-c2cccc3ccccc23)nc1C#N |  | inconclusive: 20.6 µM [activator, partial curve]
34 | COc1cc2ncc(C(=O)c3ccccc3)c(N3CCN(Cc4ccccc4)CC3)c2cc1OC |  | inconclusive: 20.6 µM [inhibitor, single point]
35 | Cc1ccc(Sc2ccc(NC(=O)CCl)cc2)cc1C | inactive: 16.3% | 
36 | CSc1ccccc1NC(=O)c1ccccc1N(C)S(C)(=O)=O | inactive: 11.7% | 
37 | Cc1c(C#N)c(NC(=O)CCl)n(Cc2ccccc2)c1C |  | inconclusive: 29.1 µM [inhibitor, single point]
38 | CCCn1c(CCNc2nc(-c3ccc(Cl)c([N+](=O)[O-])c3)cs2)nc2cc(Cl)c(Cl)cc21 |  | inconclusive: 32.6 µM [activator, partial curve, poor fit]
39 | CCc1ccc(NC(=O)CN(c2ccc3c(c2)OCO3)S(=O)(=O)c2c(C)noc2C)cc1 |  | inconclusive: 29.1 µM [inhibitor, single point]
40 | Cc1oc(-c2cc(Cl)cc(Cl)c2)cc1C(=O)NCCc1ccccc1 | inactive: -2.83% | 
41 | CCN(CC)CCCNC(=O)C1CCN(c2ncnc3c2sc2cccc(F)c23)CC1 |  | inconclusive: 32.6 µM [activator, partial curve, poor fit]
42 | COc1ccc(-c2oc3ccccc3c2C(=O)OCc2ccccc2OC)cc1 | inactive: 0.128% | 
43 | CCCS(=O)(=O)Nc1ccc(-c2cn3c(n2)SCC3)cc1 |  | inconclusive: 29.1 µM [inhibitor, partial curve, poor fit]
44 | O=C(CSc1nnc2n1CCCN2C(=S)Nc1ccc(Cl)cc1)c1ccccc1 |  | inconclusive: 32.6 µM [inhibitor, single point]
45 | OCCOCCNc1ncnc2c1cnn2-c1ccccc1 |  | inconclusive: 29.1 µM [inhibitor, single point]
